## Library screen at single concentrations

A: 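Growth of Mycobacterium tuberculosis over 4 days (cholesterol / DPPC medium with tyloxapol); the read-out is not stated. Concentration: 50 µM. The record gives no direction; compounds that gave an IC50 in retests scored well above the rest, so higher reads as more growth inhibition. About 69,000 compounds were tested under these conditions; 0.54% (about 370) showed 50% or more at least once.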
B: 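Phenotypic screen: M. tuberculosis growth, glucose 7H9 medium, 3 days; the read-out is not stated. Concentration: 50 µM. The record gives no direction; compounds that gave an IC50 in retests scored well above the rest, so higher reads as more growth inhibition. Of about 69,000 compounds tested this way, about 760 (1.1%) reached 50% or more in at least one test.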

The filed quantity is “Percent Effect” (%).
The controls that fix the scale are not given in the record; negative values are as filed.
This is an unselected part of the compounds tested.
Two or more numbers in one place are separate tests of the same structure; such repeats can differ widely.

| compound | A | B |
|---|---|---|
| `Cc1cccc(CN2CCc3nnc(CN4CCCC4=O)n3CC2)n1.O=C(O)C(F)(F)F` | -0.6356% | -40.34% |
| `CN(Cc1cccc(C(F)(F)F)c1)Cc1nc(-c2cnccn2)no1` | 24.05% | 11.52% |
| `CCOc1ccc(NC(C)c2nnnn2-c2ccccc2)cc1CO` (centres unmarked) | 22.18% | -11.72% |
| `CCCC(=O)N(C)CC(=O)Nc1ccc(Br)cn1` | 8.198% | -0.7455% |
| `O=C(CS(=O)(=O)Cc1nnnn1C1CC1)NCCc1ccccc1` | -22.87% | 3.994% |
| `CCOCc1ncn2c1CN(S(=O)(=O)c1ccc(OC)cc1)CC2` | -14.18% | -12.96% & -6.814% |
| `Cc1nnc(CN2C[C@H](NC(=O)CC3CCCC3)[C@@H](C3CC3)C2)s1` | 11.8% | 2.315% |
| `CCc1ccc(CN(C)c2ccc(-c3nc(COC)no3)cn2)nc1` | 22.51% & 25.47% | 41.7% |
| `CNc1cc(CNC(=O)c2ccncc2)nc(-c2ccncc2)n1` | -4.418% | 23.46% |
| `O=C(NCc1ccccc1)c1nc2c(o1)CN(C(=O)c1cccnc1)C2.O=C(O)C(F)(F)F` | -15.1% | -12.8% |
| `O=C(O)C(F)(F)F.[H][C@@]12C[C@H](C(=O)NCc3cccnc3)[C@@]([H])(CN(C(=O)NC)C1)O2` | -10.06% | -3.14% |
| `O=C(NCCN1CCCCC1)c1nc2ccccc2c(=O)[nH]1` | -20.71% | -12.42% |
| `CCOC(=O)N1[C@@H](c2ccco2)[C@@H](CO)C[C@]12CCCCNC2=O` | 2.051% | -8.803% |
| `CN(C)c1ccc(CCCNC(=O)NCC(O)c2ccsc2)cc1` (centres unmarked) | -8.475% | 9.285% |
| `Cc1cccc2nc(C(=O)N3CCC4(CCC(=O)N(C)C4)CC3)c(F)n12` | 6.715% | -21.45% |
| `C[C@@H]1CN(Cc2cc(C(F)(F)F)ccc2F)CC[C@@]1(O)C1CC1` | -1.192% | 11.97% & -7.91% |
| `COc1cccc(-n2cc(-c3ccnc(NC(CO)C(C)C)n3)cn2)c1` (centres unmarked) | -16.04% | -15.41% |
| `COc1ccc(OCCc2cc(C3CNCCO3)nn2C)cc1` (centres unmarked) | -37.19% | 17% |
| `CC(C)c1ncc2c(n1)CN(Cc1ccc(C(N)=O)cc1)CC2` | -2.766% | -7.593% |
| `[H][C@@]12COC[C@@H](C(=O)NC)[C@]1([H])CN(C(=O)c1ccc(CC)cc1)C2` | 15.46% | -5.299% & -0.3221% |
| `O=C(NCCS(=O)(=O)N1CCN(c2ncccn2)CC1)c1ccccc1` | -0.3609% | 0.5336% |
| `O=S(=O)(C1CC1)N1CC[C@H](OCC2CC2)[C@@H]1Cc1ccncc1` | -5.08% | 17.68% |
| `CCS(=O)(=O)c1ccccc1C(=O)NCC1Cc2ccccc2O1` (centres unmarked) | 1.413% & 5.213% | -26.02% |
| `Cn1cc2ncn([C@H]3CCN(Cc4ccccc4)C3)c(=O)c2n1` | -10.86% | -14.65% & -1.316% |
| `CC(C)c1ccc(S(=O)(=O)N2CSCC2C(=O)NCC(F)(F)F)cc1` (centres unmarked) | -9.107% | 0.1125% |
| `O=C(COc1ccc2c(c1)CCC2)N1CCCC(n2cccn2)C1` (centres unmarked) | -0.06891% | -42.01% |
| `COc1ccc(CNC(=O)CCCc2nnc3ccc(OC)nn23)cc1` | 4.644% | 0.158% |
| `O=C1COc2cc(C(=O)N3CCCC(n4cccn4)C3)ccc2N1` (centres unmarked) | -23.12% | 8.353% |
| `[H][C@@]12CCC(=O)N(CCCOC)[C@]1([H])CCN(c1ccnc3ccccc13)C2` | 24.1% | -0.3217% & 0.6073% |
| `O=C(Nc1cc(Cl)ccn1)c1nc(N2CCCC2)ncc1Cl` | -11.06% | -9.714% |
| `CN(C)C(=O)c1cnc2n1CCN(Cc1cccc(C#N)c1)C2.O=C(O)C(F)(F)F` | -14.06% & 14.95% | -17.64% |
| `COc1ccccc1CN(C)C(=O)CN1CC(n2nc(C)cc2C)C1` | 4.18% & 4.118% | 58.78% |
| `CCOc1ccc(-n2nnc(C(=O)O)c2-c2ccccn2)cc1` | -25.29% | -8.046% & -3.788% |
| `Cc1nc(CN2CCN(C(=O)C(C(C)C)n3cncn3)CC2)cs1` (centres unmarked) | -22.19% | -19.38% |
| `CN1CC(Nc2ccc(Br)cc2C#N)CCC1=O` (centres unmarked) | 0.03028% & -2.226% | 27.18% & 0.4177% |
| `NC(=O)CN1CCCC1c1csc(Nc2cnccn2)n1` (centres unmarked) | 5.679% | 22.29% |
| `Cc1n[nH]cc1CNC(=O)[C@H]1CCCCN1C(=O)OC(C)(C)C` | -7.026% | -23.91% |
| `CC(=O)c1ccc(N2CCC3(CCC(=O)N(C4CC4)C3)CC2)nc1` | 10.01% | 6.841% & 20.85% |
| `O=S(=O)(Cc1c(F)cccc1Cl)NCCCN1CCCCCC1` | 26.69% | 17.46% |
| `Cc1nccc(C(=O)NC(CN2CCCC2=O)c2ccccc2)n1` (centres unmarked) | 14.89% | 32.85% |
| `COc1ccc(C(CO)NC(=O)Nc2cccc(F)c2)cc1` (centres unmarked) | 9.83% & 6.177% | -32.1% |
| `[H][C@@]12C[C@H](C)O[C@]1([H])CCN(C(=O)COC)C2` | -0.4312% & 9.139% | -19.92% |
| `CC(=O)N1CCC2(CC1)CN(CC1CC1)c1ccc(F)cc12` | -6.781% | 4.4% |
| `CC(C)CC(=O)N1CCC2(CC1)COCCN2Cc1ccc(F)cc1.O=C(O)C(F)(F)F` | -18% | -5.809% |
| `Cc1ccc(CNC2CCN(CCc3ccncc3)CC2)s1` | 15.78% & 2.005% | 10.49% |
| `Cn1ncc(C(=O)OCC2CC(=O)N(c3ccccc3)C2)c1C(F)F` (centres unmarked) | 11.09% | 5.454% & 20.05% |

For reference, 3 entries once more:

O=C(O)C(F)(F)F.[H][C@@]12C[C@H](C(=O)NCc3cccnc3)[C@@]([H])(CN(C(=O)NC)C1)O2 read A: -10.06%; B: -3.14%.
O=S(=O)(C1CC1)N1CC[C@H](OCC2CC2)[C@@H]1Cc1ccncc1 read A: -5.08%; B: 17.68%.
CCCC(=O)N(C)CC(=O)Nc1ccc(Br)cn1 read A: 8.198%; B: -0.7455%.

Source: ChEMBL document CHEMBL3988442, “University of Dundee, Small-Polar-MMV Screening Library” (2021).